# Data source: PubChem BioAssay AID1259308 (NCATS, 2017)
# Purpose: 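Candidate targets for better recombinant protein yield in mammalian cells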 (primary screen)
# Cell system: human HEK293 embryonic kidney cells stably expressing firefly luciferase (HEK-CMV-Luc2-Hygro)
# Reagents: single siRNA against human genes, 0.8 pmol siRNA per well
# Timing: 72 h
# Detection: 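Reporter luminescence and viable-cell signal on separate replicate plates, given as percent of non-targeting control and median/MAD z-scores, plus per-cell luciferase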
# Reading the numbers: total luciferase, z-score and total luciferase, % of control: higher = more reporter protein produced; luciferase per cell, z-score: higher = more reporter output per viable cell; viable cells, % of control: higher = more viable cells
# Rule for the call: 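Active when the median/MAD z-score for overall luciferase is greater than 3; a gene was taken forward for validation with new siRNAs if at least two of its three siRNAs passed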
# Calls: active = raised luciferase; inactive = no rise
# Here is a random part of about 59,000 deposited reagents. Of all reagents, about 1,510 (2.6%) were called active. 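Calls use total luciferase alone and ignore viability, so some active siRNAs may act by altering cell number.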 Unmarked entries are inactive. The numbers tell different reagents against one gene apart.
Gene,reagent,"total luciferase, z-score","total luciferase, % of control","luciferase per cell, z-score","viable cells, % of control"
TRIM65 (tripartite motif containing 65),1,-0.349,75,-0.351,91.9
TRIM65 (tripartite motif containing 65),2,-0.852,64.9,-1.19,99.2
TRIM65 (tripartite motif containing 65),3,-0.469,72.6,1.42,55.8
RPS6KB1 (ribosomal protein S6 kinase B1),1,-1.21,57.9,-1.17,88
RPS6KB1 (ribosomal protein S6 kinase B1),2,-0.921,63.6,-1.1,95
RPS6KB1 (ribosomal protein S6 kinase B1),3,0.27,87.3,-0.171,102
TAF4B (TATA-box binding protein associated factor 4b),1,-0.82,65.6,-0.86,91.9
TAF4B (TATA-box binding protein associated factor 4b),2,-0.703,67.9,2.38,40.5
TAF4B (TATA-box binding protein associated factor 4b),3,0.726,96.3,1.24,77.7
FAM111B (FAM111 trypsin like peptidase B),1,1.45,111,2.08,71.4
FAM111B (FAM111 trypsin like peptidase B),2,-0.314,75.6,-0.354,92.8
FAM111B (FAM111 trypsin like peptidase B),3,-0.934,63.3,-1,92
SULT4A1 (sulfotransferase family 4A member 1),1,-0.43,73.3,-0.0594,83.2
SULT4A1 (sulfotransferase family 4A member 1),2,-0.945,63.1,-1.12,94.7
SULT4A1 (sulfotransferase family 4A member 1),3,0.0902,83.7,0.682,78.1
CD84 (CD84 molecule),1,1.54,113,1.02,96.1
CD84 (CD84 molecule),2,0.373,89.3,-0.075,102
CD84 (CD84 molecule),3,-0.478,72.4,-1.18,110
USP32P2 (ubiquitin specific peptidase 32 pseudogene 2),1,1.46,111,2.26,68.4
USP32P2 (ubiquitin specific peptidase 32 pseudogene 2),2,0.616,94.1,0.436,93.8
USP32P2 (ubiquitin specific peptidase 32 pseudogene 2),3,-0.369,74.6,-0.727,101
B3GNT4,1,-0.302,75.9,-0.552,98
B3GNT4,2,1.29,108,0.573,103
B3GNT4,3,-2.18,38.5,-1.25,59.7
LOC390846 (golgi SNAP receptor complex member 2 pseudogene),1,0.727,96.3,0.678,90.1
LOC390846 (golgi SNAP receptor complex member 2 pseudogene),2,0.218,86.2,-0.363,106
LOC390846 (golgi SNAP receptor complex member 2 pseudogene),3,-0.819,65.6,-1.73,116
LOC283804,1,1.77,117,1.83,80.8
LOC283804,2,-1.6,50.1,-1.34,79.6
LOC283804,3,1.65,115,1.33,90.4
"RAB29 (RAB29, member RAS oncogene family)",1,-0.0199,81.5,-0.393,101
"RAB29 (RAB29, member RAS oncogene family)",2,-0.0216,81.5,0.0327,90.2
"RAB29 (RAB29, member RAS oncogene family)",3,-0.937,63.2,-1.33,100
ADNP (activity dependent neuroprotector homeobox),1,0.743,96.7,0.908,85.1
ADNP (activity dependent neuroprotector homeobox),2,0.501,91.8,0.357,93.4
ADNP (activity dependent neuroprotector homeobox),3,-0.577,70.4,-0.832,98
RALGPS2-AS1 (RALGPS2 antisense RNA 1),1,-0.128,79.3,0.107,86.2
RALGPS2-AS1 (RALGPS2 antisense RNA 1),2,1.47,111,1.92,74.9
RALGPS2-AS1 (RALGPS2 antisense RNA 1),3,-0.391,74.1,-0.707,99.8
"IWS1 (interacts with SUPT6H, CTD assembly factor 1)",1,1.26,107,2.23,66.4
"IWS1 (interacts with SUPT6H, CTD assembly factor 1)",2,-0.598,70,-0.464,88.4
"IWS1 (interacts with SUPT6H, CTD assembly factor 1)",3,-0.905,63.9,-0.716,86.2
DNAJC5B (DnaJ heat shock protein family (Hsp40) member C5 beta),1,0.206,86,0.594,82.2
DNAJC5B (DnaJ heat shock protein family (Hsp40) member C5 beta),2,0.988,102,0.966,88
DNAJC5B (DnaJ heat shock protein family (Hsp40) member C5 beta),3,-1.7,48.1,-1.27,75.2
LARP1BP1 (LARP1B pseudogene 1),1,-1.52,51.6,-0.283,62.2
LARP1BP1 (LARP1B pseudogene 1),2,0.836,98.5,1.58,72.6
LARP1BP1 (LARP1B pseudogene 1),3,0.757,97,0.964,84.1
MIXL1 (Mix paired-like homeobox),1,2.11,124,2.33,75
MIXL1 (Mix paired-like homeobox),2,-0.706,67.8,-1.02,99.3
MIXL1 (Mix paired-like homeobox),3,-0.175,78.4,-0.239,93.3
BLTP3A (bridge-like lipid transfer protein family member 3A),1,0.0654,83.2,-0.312,101
BLTP3A (bridge-like lipid transfer protein family member 3A),2,0.122,84.3,-0.249,101
BLTP3A (bridge-like lipid transfer protein family member 3A),3,0.0768,83.4,-0.601,109
HABP2 (hyaluronan binding protein 2),1,1.26,107,1.15,88.3
HABP2 (hyaluronan binding protein 2),2,-0.123,79.4,-0.165,92.7
HABP2 (hyaluronan binding protein 2),3,2.18,125,1.16,103

Laid out differently: 3 of the entries above.
{"Gene": "BLTP3A (bridge-like lipid transfer protein family member 3A)", "reagent": 3, "total luciferase, z-score": 0.0768, "total luciferase, % of control": 83.4, "luciferase per cell, z-score": -0.601, "viable cells, % of control": 109}
{"Gene": "HABP2 (hyaluronan binding protein 2)", "reagent": 1, "total luciferase, z-score": 1.26, "total luciferase, % of control": 107, "luciferase per cell, z-score": 1.15, "viable cells, % of control": 88.3}
{"Gene": "HABP2 (hyaluronan binding protein 2)", "reagent": 2, "total luciferase, z-score": -0.123, "total luciferase, % of control": 79.4, "luciferase per cell, z-score": -0.165, "viable cells, % of control": 92.7}
